The text below walks through data of patent US20120156198A1 (Hoffmann-La Roche, published 2012).

Residue numbers refer to the chain shown, from its start. These are yes or no findings as the source states them, for the method shown. Some results given as binding are weak or reduced against the parent protein; the word gives no strength.

In assay [1] the target is cynomolgus IL-18Rα:Fc (cynomolgus; human). The assay can be described thus: SPR (BIAcore 3000, 25°C), Fc-tagged variant captured, antibody 0.2 µg/ml.
The target of assay [2] is cynomolgus IL-18Rα/IL-18Rβ on transfected cells (cynomolgus). Briefly: FACS on transfected HEK293 cells, antibody 1 µg/ml.

B1: Mab 1G12 (antibody, V domains shown)
VH: QVQLQQPGAELVKPGASVRMSCKTSDYTFTSNWMHWVKQRPGQGLEWIGTIDPSDSYTYYNQKFKGRATLTVDTSSSTAYMQLSSLTSEDSAVYYCTTSGDYDADRYFDVWGAGTTVTVSS
VL: DIVLTQSPASLGVSLGQRATISCRASKSVSTSGDSYMHWYQQKPGQSPKLLIYLASNLESGVPARFSGSGSGTDFTLNIHPVEEEDAATYYCQQSRELPLSFGAGTKLELK
notes: Monoclonal antibody from immunized NMRI mice; detected with anti-mouse IgG1-PE / anti-mouse IgG; also called F20.1G12; monoclonal antibody 1G12
Consider B1, for which the binding result in assay [1] and in assay [2] was “binds” throughout.

B2: Mab 2D11 (antibody, V domains shown)
VH: B1 VH with R19K, T24A, R67K, Q82H
VL: B1 VL
notes: Monoclonal antibody from immunized NMRI mice; detected with anti-mouse IgG1-PE / anti-mouse IgG; also called F20.2D11
Take B2: the binding result in assay [1] and in assay [2] was “binds” in each case.
